Laboratory results published in PubChem BioAssay AID901 (National Center for Advancing Translational Sciences (NCATS), 2007).
This is one part of the list. These are further read-outs of the screen, such as a control signal, another cell line or another target. No call is given for them. Most of these compounds were active or inconclusive in the main read-out, so they are no random draw. Words in brackets tell the shape of the fitted curve; partial curves, single points and poor fits give uncertain potencies.

Experiment: qHTS Assay for Identifying the Cell-Membrane Permeable IMPase Inhibitors
Conditions: CHO-M1 cells, IP1 accumulation, HTRF TR-FRET ratio; measured here: donor channel 620 nm AC50

Question: With CC(=O)Nc1cc(S(=O)(=O)Nc2cccc(C)c2)c(C)cc1C as the compound, how does the AC50 read?
Answer: The AC50 was 31.6 µM [falling, single point].

Question: With Cc1cc(N2C(=O)C(=O)/C(=C(/O)c3ccc(Cl)cc3)C2c2cccc(Br)c2)no1 (stereo not drawn) as the compound, how does the AC50 read?
Answer: The AC50 was 12.6 µM [rising, single point].

Question: For COc1ccc(OC)c(NS(=O)(=O)c2ccc(Cl)s2)c1, which AC50 is on record?
Answer: Its AC50 is 25.1 µM [falling, single point].

Question: With COc1ccccc1NC(=O)CCNC(=O)Cn1ccc2ccccc2c1=O as the compound, how does the AC50 read?
Answer: The AC50 was 31.6 µM [falling, single point].

Question: Which AC50 does the source give for Nc1scc2c(C(=O)N/N=C/c3ccc(Cl)cc3)nn(-c3ccccc3)c(=O)c12 here?
Answer: Its AC50 is 20 µM [falling, partial curve, poor fit].

Question: With CCCCCCn1c(CN2CCN(C(=O)c3ccco3)CC2)nc2c1c(=O)n(C)c(=O)n2C as the compound, how does the AC50 read?
Answer: Its AC50 is 31.6 µM [rising, single point].

Question: With Cc1ccc(OCC(O)CN2C(=O)NC(C)(C)C2=O)cc1 (stereo not drawn) as the compound, how does the AC50 read?
Answer: The AC50 was 31.6 µM [falling, single point].

Question: Which AC50 does the source give for CCOC(=O)/C(C(C)=O)=C1\OC(=O)c2ccccc21 here?
Answer: The AC50 was 0.00316 µM [rising, full curve, poor fit].

Question: Which AC50 does the source give for COc1ccc(OC)c(-n2c(-c3cc(-c4ccc(F)cc4)n[nH]3)n[nH]c2=S)c1 here?
Answer: Its AC50 is 6.31 µM [rising, full curve, poor fit].

Question: With CCOC(=O)CSC1=C(C#N)C(c2ccc(OC)cc2)C2=C(CC(C)(C)CC2=O)N1 (stereo not drawn) as the compound, how does the AC50 read?
Answer: Its AC50 is 12.6 µM [rising, partial curve].

Question: Which AC50 does the source give for COc1ccc(N(CC(O)CN2CCCCC2)S(=O)(=O)c2ccc(C)cc2)cc1 (stereo not drawn) here?
Answer: Its AC50 is 0.00501 µM [falling, full curve, poor fit].

Question: For Cc1occc1C(=O)NC(C)C(C)(C)C (stereo not drawn), which AC50 is on record?
Answer: The AC50 was 1.12 µM [rising, full curve, poor fit].

Question: For COC(=O)C1=C(NC(C)=O)CCS1, which AC50 is on record?
Answer: Its AC50 is 35.5 µM [falling, single point].

Question: Which AC50 does the source give for CCc1ccccc1NC(=O)c1nnn(CC(=O)Nc2cccc(C)c2C)c1N here?
Answer: The AC50 was 25.1 µM [rising, single point].

Question: With CC1CCc2c(sc3nnn(CC(=O)Nc4cccc(C(F)(F)F)c4)c(=O)c23)C1 (stereo not drawn) as the compound, how does the AC50 read?
Answer: The AC50 was 0.01 µM [falling, full curve, poor fit].

Question: For CC(C)CC(=O)Nc1nc2ccc(S(=O)(=O)N3CCOCC3)cc2s1, which AC50 is on record?
Answer: Its AC50 is 3.16 µM [rising, single point].

Question: With CC(C)(C)CC(=O)Nc1nnc(C(F)(F)F)s1 as the compound, how does the AC50 read?
Answer: Its AC50 is 0.794 µM [falling, full curve].

Question: For COc1ccc(/C=C(\NC(=O)c2ccccc2)C(=O)NC2CCCCC2)cc1, which AC50 is on record?
Answer: The AC50 was 6.31 µM [falling, single point].

Question: With O=C(O)c1cccc(NC(=O)c2cccc(NC(=O)C3CCCO3)c2)c1 (stereo not drawn) as the compound, how does the AC50 read?
Answer: Its AC50 is 5.01 µM [rising, single point].

Question: With CCNNC(=O)C(O)(c1cccc(C)c1)c1cccc(C)c1 as the compound, how does the AC50 read?
Answer: Its AC50 is 6.31 µM [falling, single point].

Question: For Cc1cc2ncc(-c3ncc(C(F)(F)F)cc3Cl)cn2n1, which AC50 is on record?
Answer: The AC50 was 35.5 µM [falling, single point].

Question: For COC(=O)c1c(NC(=O)CCCOc2cccc(C)c2)sc2c1CCC(C)C2 (stereo not drawn), which AC50 is on record?
Answer: Its AC50 is 20 µM [rising, single point].

Question: With O=C(CSc1nnnn1-c1ccc2c(c1)CCC2)Nc1ccc2c(c1)OCCO2 as the compound, how does the AC50 read?
Answer: Its AC50 is 0.0355 µM [falling, full curve].

Question: With CCSC(=O)N(CC)CC(=O)Nc1c(CC)cccc1CC as the compound, how does the AC50 read?
Answer: Its AC50 is 5.01 µM [falling, single point].

Question: Which AC50 does the source give for COc1cc(OC)cc(-c2cc(NC(C)=O)n[nH]2)c1 here?
Answer: The AC50 was 7.08 µM [falling, single point].

Question: For O=C(CNS(=O)(=O)c1ccc(Br)s1)NCc1ccc2c(c1)OCO2, which AC50 is on record?
Answer: The AC50 was 2 µM [falling, partial curve, poor fit].

Question: For CCOC(=O)COc1ccc2cc(C(=O)OCC)c(=O)oc2c1, which AC50 is on record?
Answer: Its AC50 is 0.501 µM [rising, full curve, poor fit].

Question: For CCCCCCC(=O)Nc1nnc(CC)s1, which AC50 is on record?
Answer: Its AC50 is 5.01 µM [falling, single point].

Question: For c1ccc2[nH]c(CN3CCN(c4ncnc5c4oc4ccccc45)CC3)nc2c1, which AC50 is on record?
Answer: The AC50 was 31.6 µM [falling, single point].

Question: For O=C(O)CCCC(=O)Nc1c(F)c(F)c(F)c(F)c1F, which AC50 is on record?
Answer: The AC50 was 0.501 µM [falling, full curve, poor fit].

Question: For COc1ccc(NC(=O)CSc2nc(-c3ccccc3)cc(-c3cc(OC)c(OC)c(OC)c3)c2C#N)c(OC)c1, which AC50 is on record?
Answer: Its AC50 is 22.4 µM [rising, single point].

Question: For O=C(NCc1ccco1)c1cc2ccc(O)cc2oc1=O, which AC50 is on record?
Answer: Its AC50 is 5.01 µM [rising, single point].

Question: Which AC50 does the source give for O=C(CSc1nnc(-c2ccco2)o1)N1CCOCC1 here?
Answer: The AC50 was 31.6 µM [falling, single point].

Question: For Cn1cc(S(=O)(=O)CC(=O)Nc2ccc3c(c2)OCCO3)c2ccccc21, which AC50 is on record?
Answer: Its AC50 is 0.251 µM [falling, full curve, poor fit].

Question: With CCOC(=O)c1cc2sccc2n1Cc1ccccc1 as the compound, how does the AC50 read?
Answer: Its AC50 is 0.02 µM [falling, full curve, poor fit].

Question: With CCOc1cc(CNc2ccc(N(C)C)cc2)cc(Br)c1OCC(=O)NC(C)(C)C as the compound, how does the AC50 read?
Answer: The AC50 was 5.01 µM [falling, partial curve].

Question: With CCOC(=O)c1ccc(NC(=O)C2CCN(C(=O)c3ccc(OC)c(OC)c3)CC2)cc1 as the compound, how does the AC50 read?
Answer: Its AC50 is 6.31 µM [falling, single point].

Question: With C=CCn1c(SCC(=O)c2cc(C)n(Cc3cccs3)c2C)nnc1-c1ccncc1 as the compound, how does the AC50 read?
Answer: The AC50 was 0.224 µM [falling, full curve, poor fit].

Question: Which AC50 does the source give for CCNc1c([N+](=O)[O-])ncn1C here?
Answer: Its AC50 is 0.0251 µM [falling, full curve, poor fit].

Question: With CC(=O)c1ccc(NC(=O)c2ccc(CSc3ccccc3)o2)cc1 as the compound, how does the AC50 read?
Answer: Its AC50 is 15.8 µM [rising, single point].

Question: For Cc1cc(=O)[nH]c2c1cnn2Cc1ccccc1, which AC50 is on record?
Answer: Its AC50 is 0.00631 µM [falling, full curve].

Question: Which AC50 does the source give for Cc1nn(C)c(C)c1CN(C)C(=O)CCCC(=O)O here?
Answer: Its AC50 is 0.126 µM [rising, single point].

Question: Which AC50 does the source give for O=S(=O)(c1ccc(F)cc1)N1CCN(c2ncnc3c2cnn3-c2ccccc2)CC1 here?
Answer: The AC50 was 0.126 µM [rising, full curve, poor fit].
